Test results: paper PMC5400244
No constants are given. Whether binding was seen depends on the method and setting. In cells and extracts the contact can be indirect. Some entries that bind do so weakly or less than the wild type.

Amino acid sequences for entries named in this document (tags omitted).
UniProt O75475: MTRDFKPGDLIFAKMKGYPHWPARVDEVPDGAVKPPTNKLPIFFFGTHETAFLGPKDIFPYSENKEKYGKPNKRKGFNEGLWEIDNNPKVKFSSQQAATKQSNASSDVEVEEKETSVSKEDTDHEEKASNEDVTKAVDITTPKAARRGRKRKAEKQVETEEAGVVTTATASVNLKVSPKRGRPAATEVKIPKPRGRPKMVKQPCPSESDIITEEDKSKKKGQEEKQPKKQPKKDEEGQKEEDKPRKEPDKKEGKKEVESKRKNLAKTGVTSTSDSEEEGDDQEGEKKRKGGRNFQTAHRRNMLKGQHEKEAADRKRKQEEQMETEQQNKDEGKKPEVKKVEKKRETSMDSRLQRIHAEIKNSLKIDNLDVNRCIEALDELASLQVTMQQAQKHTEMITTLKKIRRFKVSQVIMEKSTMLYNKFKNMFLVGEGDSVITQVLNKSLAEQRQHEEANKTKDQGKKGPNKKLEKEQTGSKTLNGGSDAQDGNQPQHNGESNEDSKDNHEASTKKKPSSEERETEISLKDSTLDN
UniProt Q07955: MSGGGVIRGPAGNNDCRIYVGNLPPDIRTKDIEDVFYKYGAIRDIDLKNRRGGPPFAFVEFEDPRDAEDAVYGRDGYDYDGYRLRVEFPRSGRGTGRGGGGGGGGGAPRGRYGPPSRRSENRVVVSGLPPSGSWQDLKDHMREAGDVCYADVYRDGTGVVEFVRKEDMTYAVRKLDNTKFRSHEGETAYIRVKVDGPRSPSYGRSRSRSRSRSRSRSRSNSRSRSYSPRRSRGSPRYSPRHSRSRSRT

Biological target: PC4 and SFRS1-interacting protein (human (endogenous in EBV-transformed lymphoblast cells of an FD patient)) (UniProt O75475)
Experiment: co-IP; endogenous proteins in FD cell lysates; 5 ug antibody covalently cross-linked to Protein A/G magnetic beads (Pierce Crosslink Magnetic IP/Co-IP kit), room temperature 2 hours, low-pH elution, Western blotting; nonimmune IgG as negative control

binding: binds
Substance: SF2/ASF (from UniProt Q07955 1-248)
